57 compounds from the supplement of paper PMC11150407 can be followed below.

Hit rate of the full screen: of about 2,100 compounds, about 180 (8.6%) showed an effect of 50% or more. This is one part of the list.

This assay relates to MOLM1 and UCSD/AML1 (averaged). Briefly: cell viability relative to DMSO control (POC); higher = less growth inhibition. The settings on record: 1 µM; 72 h. The procedure: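 Primary viability screen in the 3q26 EVI1-high AML cell lines MOLM1 and UCSD/AML1 (1.5e3 cells/well, 384-well), compounds at 1 uM for 72 h. ATP CellTiter-Glo read-out given as percent of viable cells over DMSO control (POC), averaged over duplicates. DMSO was the negative control and 5 uM etoposide the positive control. This mapping covers the MicroSource Spectrum and Selleck anticancer libraries (drug names).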
Turning to `CO[C@H]1C[C@H](O[C@H]2CC[C@]3(C=O)[C@H]4CC[C@]5(C)[C@@H](C6=CC(=O)OC6)CC[C@]5(O)[C@@H]4CC[C@]3(O)C2)O[C@H](C)[C@H]1O`, the cell viability was determined as 3.81%.
As for `CCC1(c2ccc(N)cc2)CCC(=O)NC1=O` (configuration not stated) [Aminoglutethimide (Cytadren)], the cell viability came to 64.7%.
As for `CCC1(c2ccc(N)cc2)CCC(=O)NC1=O` (configuration not stated), the figure is 102%.
As to `O=[N+]([O-])c1cc([As](=O)(O)O)ccc1O`, the cell viability came out at 104%.
`C[C@]12C=CC(=O)C=C1CC[C@@H]1[C@@H]2CC[C@]2(C)C(=O)CC[C@@H]12`: the cell viability came to 101%.
In the case of `CCN1C[C@]2(OC(=O)c3ccccc3NC(C)=O)CC[C@H](OC)[C@@]34[C@@H]2C[C@@H]([C@@H]13)[C@@]1(O)C[C@H](OC)[C@H]2C[C@@H]4[C@]1(O)[C@H]2OC`, the cell viability is 96.8%.
The result for `CC(=O)CC1CCCCN1` (configuration not stated) reads 102%; that for `CCN1C[C@]2(COC)[C@H](O)C[C@H](OC)[C@@]34[C@@H]5C[C@@]6(O)[C@H](OC(=O)c7ccccc7)[C@@H]5[C@@](OC(C)=O)([C@@H]([C@H](OC)[C@H]23)[C@@H]14)[C@@H](O)[C@@H]6OC`, 100%; that for `CC[C@@]1(O)C[C@H](O[C@H]2C[C@H](N(C)C)[C@H](O)[C@H](C)O2)c2c(cc3c(c2O)C(=O)c2c(O)ccc(O)c2C3=O)[C@H]1C(=O)OC`, 0.762%.
As to `CC(=O)OC1CCC23C(=O)OC45CCC(C6=CC(=O)OC6)C4(C)CCC2C5CCC3(O)C1` (configuration not stated), the cell viability was 5.23%.
The result for `NC(=O)CN1CCCC1=O` reads 100%.
The result for `O=P1(NCCCl)OCCCN1CCCl` (configuration not stated) [Ifosfamide] reads 105%; that for `O=P1(NCCCl)OCCCN1CCCl` (configuration not stated), 105%; that for `C=C(C)[C@@H]1[C@H]2OC(=O)[C@@H]1[C@]1(O)C[C@H]3O[C@]34C(=O)O[C@H]2[C@]14C`, 110%.
The result for `Oc1ccc(Cl)cc1` reads 91.7%; that for `Cc1cccc(C)c1NC1=NCCCS1`, 100%.
`CC(=O)OCC1=C(C(=O)O)N2C(=O)[C@@H](NC(=O)CCC[C@@H](N)C(=O)O)[C@H]2SC1`: the cell viability is 103%.
As for `COc1c2c(cc3c1OCO3)CC[N+](C)=C2`, the figure is 102%; as for `NC(=O)C[S+]([O-])C(c1ccccc1)c1ccccc1` (configuration not stated), 97.7%; as for `C[C@@H](CO)NC(=O)[C@@H]1C=C2c3cccc4[nH]cc(c34)C[C@H]2N(C)C1`, 102%.
As for `CN1CCN(C(=O)OC2c3nccnc3C(=O)N2c2ccc(Cl)cn2)CC1` (configuration not stated), the figure is 98.9%; as for `NCCc1c[nH]c2ccccc12`, 89.9%; as for `C[C@]12CC[C@H](O)C[C@H]1CC[C@@H]1[C@@H]2C[C@@H](O)[C@]2(C)[C@@H](C3=CC(=O)OC3)CC[C@]12O`, 18.7%.
On to `COc1ccc(C[C@H]2NC[C@H](O)[C@H]2OC(C)=O)cc1`, for which the cell viability turned out to be 3.59%.
For `CC1(C)N([O-])[N+](=O)C1(C)Br` (configuration not stated), the cell viability was 109%.
As for `COc1ccc2c(c1)[nH]c1c(C)nccc12`, the figure is 65.3%.
For `O=C1c2ccccc2C(=O)c2ccccc21`, the cell viability was found to be 92.8%.
The result for `C[C@@H]1CC[C@H]2[C@@H](C)C(=O)O[C@@H]3O[C@@]4(C)CC[C@@H]1[C@]32OO4` reads 98.1%.
As to `CC[C@H]1[C@@H]2C[C@H]3[C@@H]4N(C)c5ccccc5[C@]45C[C@@H]([C@@H]2[C@H]5O)N3[C@@H]1O`, the cell viability was found to be 109%.
As for `CC(C)(C)C(=O)C(Oc1ccc(Cl)cc1)n1cncn1` (configuration not stated), the figure is 99.8%; as for `CC[C@H]1CN2CCc3cc(OC)c(OC)cc3[C@@H]2C[C@@H]1C[C@H]1NCCc2cc(OC)c(OC)cc21`, 90.6%.
The result for `CNC(C)C(O)c1ccccc1` (configuration not stated) reads 96.1%; that for `COc1cc([C@@H]2c3cc4c(cc3[C@H](O)[C@H]3COC(=O)[C@H]23)OCO4)cc(OC)c1OC`, 6.17%.
In the case of `CN(C)C(=S)SSC(=S)N(C)C`, the cell viability was found to be 1.29%.
For the compound `CC(C)C[C@H](CN)CC(=O)O`, the cell viability came to 67.7%.
In the case of `O=C1NC(=O)C(=O)C(=O)N1`, the cell viability worked out at 100%.
The result for `CC(C)(C)NCC(O)c1ccccc1Cl` (configuration not stated) reads 109%.
For `COc1cc2c(cc1-c1cc3cc4ccoc4cc3oc1=O)OCO2`, the cell viability was 99.4%.
As for `O=C(O)CCC1NCC2CC1CN1CCCCC21` (configuration not stated), the figure is 93.6%; as for `C[N+]12CCC(CC1)C(OC(=O)C(O)(c1ccccc1)c1ccccc1)C2` (configuration not stated), 98.5%; as for `O=C1CCC[C@@H]2[C@H]3C[C@@H](CN12)[C@@H]1CCCCN1C3.[O-][Cl+3]([O-])([O-])O`, 95.6%.
As for `CC(CC(C(N)=O)(c1ccccc1)c1ccccc1)N(C)C` (configuration not stated), the figure is 94.3%.
For `C[C@H]1C(=O)O[C@@H]2CCN3CC=C(COC(=O)[C@](C)(O)[C@]1(C)O)[C@H]23`, the cell viability is 103%.
For the compound `O=C(O)COc1cc(Cl)c(Cl)cc1Cl`, the cell viability is 98.7%.
The result for `CO[C@]12C[C@@H](COC(=O)c3cncc(Br)c3)CN(C)[C@@H]1Cc1cn(C)c3cccc2c13` reads 98.1%; that for `CC[C@H]1CN2CC[C@H]1C[C@@H]2[C@@H](O)c1ccnc2ccc(OC)cc12`, 110%; that for `CC(C)=CCCC1(C)C=Cc2c(O)c3c(c(CC=C(C)C)c2O1)OC12C(CC4CC1C(C)(C)OC2(C/C=C(/C)C(=O)O)C4O)C3=O` (configuration not stated), 94.1%.
The result for `Cc1cc(O)ccc1Cl` reads 102%.
Consider `CC(=O)O[C@H]1C[C@@H](OC(C)=O)C(C)(C)C2C[C@@H](OC(C)=O)[C@]3(C)C(CC[C@@]4(C)[C@H](c5ccoc5)C(=O)[C@H]5O[C@]543)[C@]21C` (some centres not stated), for which the cell viability was found to be 85.4%.
For the compound `C=C(C)[C@H]1CN[C@H](C(=O)O)[C@H]1CC(=O)O`, the cell viability amounted to 96.1%.
On to `C[C@@H]1CC[C@@]2(OC1)O[C@H]1[C@@H](O)[C@H]3[C@@H]4CC[C@H]5C[C@@H](O[C@@H]6O[C@H](CO)[C@H](O[C@@H]7O[C@H](CO)[C@@H](O)[C@H](O[C@@H]8OC[C@@H](O)[C@H](O)[C@H]8O)[C@H]7O[C@@H]7O[C@H](CO)[C@H](O)[C@H](O[C@@H]8O[C@H](CO)[C@@H](O)[C@H](O)[C@H]8O)[C@H]7O)[C@H](O)[C@H]6O)[C@H](O)C[C@]5(C)[C@H]4CC[C@]3(C)[C@H]1[C@@H]2C`, for which the cell viability is 92.7%.
As for `CN1[C@@H]2CC[C@H]1C[C@@H](OC(=O)[C@H](CO)c1ccccc1)C2`, the figure is 100%.
`O=C1CN=C(c2ccccc2Cl)c2cc([N+](=O)[O-])ccc2N1`: the cell viability was 87%.
Regarding `O=[N+]([O-])O[C@@H]1CO[C@H]2[C@@H]1OC[C@@H]2O`, the cell viability was 98.1%.
As for `OC1CCCCC1N1CCC(c2ccccc2)CC1` (configuration not stated), the figure is 107%; as for `N[C@@H](Cc1ccc(N(CCCl)CCCl)cc1)C(=O)O`, 81.3%; as for `CC(C)=CCOc1c2occc2cc2ccc(=O)oc12`, 106%.
